In test [1] the target is T1, HA/His-tagged Cdt1-WT (Cdt1-HASH) (human) (UniProt Q9H211).
T1 sequence: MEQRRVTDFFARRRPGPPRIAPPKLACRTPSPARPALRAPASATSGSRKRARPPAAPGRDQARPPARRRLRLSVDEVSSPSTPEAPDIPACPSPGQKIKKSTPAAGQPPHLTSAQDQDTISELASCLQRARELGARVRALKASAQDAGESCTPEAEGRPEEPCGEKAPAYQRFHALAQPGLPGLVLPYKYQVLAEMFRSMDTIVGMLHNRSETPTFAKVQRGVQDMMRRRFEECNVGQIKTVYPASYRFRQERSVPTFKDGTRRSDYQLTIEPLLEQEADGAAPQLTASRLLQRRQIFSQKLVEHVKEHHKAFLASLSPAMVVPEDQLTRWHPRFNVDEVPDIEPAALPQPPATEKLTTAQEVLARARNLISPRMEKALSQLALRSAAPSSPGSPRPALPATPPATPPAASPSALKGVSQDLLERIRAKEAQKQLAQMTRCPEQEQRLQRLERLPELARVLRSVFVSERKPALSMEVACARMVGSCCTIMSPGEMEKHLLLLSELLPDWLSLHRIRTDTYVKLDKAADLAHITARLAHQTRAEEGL
Kind of test: pull-down.

The chains behind the UniProt entries cited, without tags or fusion partners. Where a name states a change or a piece, a line headed by the entry shows the natural chain unless it says otherwise.
UniProt Q96GD4, whole entry: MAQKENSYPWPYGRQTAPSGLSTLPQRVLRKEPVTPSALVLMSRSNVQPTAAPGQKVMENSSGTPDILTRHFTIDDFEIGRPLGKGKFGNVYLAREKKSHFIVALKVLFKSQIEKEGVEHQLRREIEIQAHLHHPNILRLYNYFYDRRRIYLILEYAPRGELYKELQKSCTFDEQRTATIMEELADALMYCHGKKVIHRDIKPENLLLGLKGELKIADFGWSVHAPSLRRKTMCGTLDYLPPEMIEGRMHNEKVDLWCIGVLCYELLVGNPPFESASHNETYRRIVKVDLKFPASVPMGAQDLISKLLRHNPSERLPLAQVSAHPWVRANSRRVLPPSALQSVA

Test [2] addresses T2, cy-Cdt1 mutant [RRL (68-70) AAA], HA/His-tagged (human) (UniProt Q9H211).
T2 sequence: T1 sequence with R68A, R69A, L70A
The test is described as follows: pull-down.

Where a chain is given by its changes, count along the chain named. No constants are given. Whether binding was seen depends on the method and setting. In cells and extracts the contact can be indirect. Some results given as binding are weak or reduced against the parent protein; the word gives no strength. Tags and fused reporters may be left off the sequences shown.

With “Aurora B kinase (endogenous) (from UniProt Q96GD4 1-344) (enzyme)”, the binding result in test [1] and in test [2] was “binds” in each case.
